From the supplement of paper PMC10849652
The list shows a part of the results.

Protein sequences, listed by entry. Tags and fused reporters are not part of them. Lines headed by an entry give the natural chain unless they say otherwise; changes in a name come on top.
UniProt Q86US8: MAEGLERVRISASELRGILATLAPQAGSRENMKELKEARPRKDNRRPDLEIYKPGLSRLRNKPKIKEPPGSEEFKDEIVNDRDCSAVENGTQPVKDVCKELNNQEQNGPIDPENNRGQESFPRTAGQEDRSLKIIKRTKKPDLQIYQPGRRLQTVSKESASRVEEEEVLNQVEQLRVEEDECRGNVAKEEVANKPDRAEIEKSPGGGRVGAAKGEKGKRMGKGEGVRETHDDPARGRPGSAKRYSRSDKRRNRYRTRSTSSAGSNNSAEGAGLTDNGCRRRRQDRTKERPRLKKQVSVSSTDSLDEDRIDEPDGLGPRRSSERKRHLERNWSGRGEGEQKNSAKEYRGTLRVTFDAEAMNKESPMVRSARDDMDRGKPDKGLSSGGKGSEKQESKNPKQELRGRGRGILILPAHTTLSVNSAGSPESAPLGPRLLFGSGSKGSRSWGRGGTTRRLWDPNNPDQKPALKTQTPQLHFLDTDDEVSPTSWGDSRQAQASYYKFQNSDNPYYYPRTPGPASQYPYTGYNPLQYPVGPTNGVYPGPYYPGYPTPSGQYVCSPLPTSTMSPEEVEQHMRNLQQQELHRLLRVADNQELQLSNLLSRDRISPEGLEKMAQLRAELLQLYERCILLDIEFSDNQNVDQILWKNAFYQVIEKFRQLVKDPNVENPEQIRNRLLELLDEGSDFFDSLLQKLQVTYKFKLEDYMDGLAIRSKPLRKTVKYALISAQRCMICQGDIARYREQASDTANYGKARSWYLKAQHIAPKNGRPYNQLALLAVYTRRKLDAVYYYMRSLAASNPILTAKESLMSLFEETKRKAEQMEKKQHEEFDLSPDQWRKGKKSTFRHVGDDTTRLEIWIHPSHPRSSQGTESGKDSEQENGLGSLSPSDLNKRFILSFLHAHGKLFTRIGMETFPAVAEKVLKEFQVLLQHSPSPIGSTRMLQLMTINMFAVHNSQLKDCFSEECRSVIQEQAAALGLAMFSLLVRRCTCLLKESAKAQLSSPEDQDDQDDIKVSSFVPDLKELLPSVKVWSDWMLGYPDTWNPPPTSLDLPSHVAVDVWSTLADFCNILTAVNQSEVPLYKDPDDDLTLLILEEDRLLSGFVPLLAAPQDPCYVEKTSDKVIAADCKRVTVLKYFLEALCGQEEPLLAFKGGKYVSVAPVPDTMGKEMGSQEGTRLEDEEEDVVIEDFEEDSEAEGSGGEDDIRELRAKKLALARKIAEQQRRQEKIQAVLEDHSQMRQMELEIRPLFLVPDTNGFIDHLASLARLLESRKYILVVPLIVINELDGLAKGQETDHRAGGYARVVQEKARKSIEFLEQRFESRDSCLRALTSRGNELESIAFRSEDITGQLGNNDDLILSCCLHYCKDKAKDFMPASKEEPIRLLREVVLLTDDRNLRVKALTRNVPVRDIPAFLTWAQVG
UniProt Q86UD5: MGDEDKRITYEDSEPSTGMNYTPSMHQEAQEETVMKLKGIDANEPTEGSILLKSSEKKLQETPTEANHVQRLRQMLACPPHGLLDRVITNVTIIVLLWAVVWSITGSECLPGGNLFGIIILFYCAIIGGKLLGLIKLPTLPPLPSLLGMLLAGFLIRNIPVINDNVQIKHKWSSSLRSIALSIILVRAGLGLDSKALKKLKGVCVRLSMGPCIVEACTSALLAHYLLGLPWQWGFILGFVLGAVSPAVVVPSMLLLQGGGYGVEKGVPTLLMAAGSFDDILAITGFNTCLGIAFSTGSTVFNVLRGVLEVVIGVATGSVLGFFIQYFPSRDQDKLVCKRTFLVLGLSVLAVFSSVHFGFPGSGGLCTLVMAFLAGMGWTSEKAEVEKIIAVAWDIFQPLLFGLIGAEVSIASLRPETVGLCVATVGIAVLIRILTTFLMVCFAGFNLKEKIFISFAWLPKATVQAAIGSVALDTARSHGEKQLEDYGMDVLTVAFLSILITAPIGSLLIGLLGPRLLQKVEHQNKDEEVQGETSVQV
UniProt P09234, whole entry, looked up: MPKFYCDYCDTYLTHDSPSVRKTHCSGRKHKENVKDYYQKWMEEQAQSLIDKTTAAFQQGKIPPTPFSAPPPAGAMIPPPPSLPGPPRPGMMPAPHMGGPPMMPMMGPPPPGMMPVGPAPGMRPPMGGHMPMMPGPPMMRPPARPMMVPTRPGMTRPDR
UniProt O75643, whole entry, looked up: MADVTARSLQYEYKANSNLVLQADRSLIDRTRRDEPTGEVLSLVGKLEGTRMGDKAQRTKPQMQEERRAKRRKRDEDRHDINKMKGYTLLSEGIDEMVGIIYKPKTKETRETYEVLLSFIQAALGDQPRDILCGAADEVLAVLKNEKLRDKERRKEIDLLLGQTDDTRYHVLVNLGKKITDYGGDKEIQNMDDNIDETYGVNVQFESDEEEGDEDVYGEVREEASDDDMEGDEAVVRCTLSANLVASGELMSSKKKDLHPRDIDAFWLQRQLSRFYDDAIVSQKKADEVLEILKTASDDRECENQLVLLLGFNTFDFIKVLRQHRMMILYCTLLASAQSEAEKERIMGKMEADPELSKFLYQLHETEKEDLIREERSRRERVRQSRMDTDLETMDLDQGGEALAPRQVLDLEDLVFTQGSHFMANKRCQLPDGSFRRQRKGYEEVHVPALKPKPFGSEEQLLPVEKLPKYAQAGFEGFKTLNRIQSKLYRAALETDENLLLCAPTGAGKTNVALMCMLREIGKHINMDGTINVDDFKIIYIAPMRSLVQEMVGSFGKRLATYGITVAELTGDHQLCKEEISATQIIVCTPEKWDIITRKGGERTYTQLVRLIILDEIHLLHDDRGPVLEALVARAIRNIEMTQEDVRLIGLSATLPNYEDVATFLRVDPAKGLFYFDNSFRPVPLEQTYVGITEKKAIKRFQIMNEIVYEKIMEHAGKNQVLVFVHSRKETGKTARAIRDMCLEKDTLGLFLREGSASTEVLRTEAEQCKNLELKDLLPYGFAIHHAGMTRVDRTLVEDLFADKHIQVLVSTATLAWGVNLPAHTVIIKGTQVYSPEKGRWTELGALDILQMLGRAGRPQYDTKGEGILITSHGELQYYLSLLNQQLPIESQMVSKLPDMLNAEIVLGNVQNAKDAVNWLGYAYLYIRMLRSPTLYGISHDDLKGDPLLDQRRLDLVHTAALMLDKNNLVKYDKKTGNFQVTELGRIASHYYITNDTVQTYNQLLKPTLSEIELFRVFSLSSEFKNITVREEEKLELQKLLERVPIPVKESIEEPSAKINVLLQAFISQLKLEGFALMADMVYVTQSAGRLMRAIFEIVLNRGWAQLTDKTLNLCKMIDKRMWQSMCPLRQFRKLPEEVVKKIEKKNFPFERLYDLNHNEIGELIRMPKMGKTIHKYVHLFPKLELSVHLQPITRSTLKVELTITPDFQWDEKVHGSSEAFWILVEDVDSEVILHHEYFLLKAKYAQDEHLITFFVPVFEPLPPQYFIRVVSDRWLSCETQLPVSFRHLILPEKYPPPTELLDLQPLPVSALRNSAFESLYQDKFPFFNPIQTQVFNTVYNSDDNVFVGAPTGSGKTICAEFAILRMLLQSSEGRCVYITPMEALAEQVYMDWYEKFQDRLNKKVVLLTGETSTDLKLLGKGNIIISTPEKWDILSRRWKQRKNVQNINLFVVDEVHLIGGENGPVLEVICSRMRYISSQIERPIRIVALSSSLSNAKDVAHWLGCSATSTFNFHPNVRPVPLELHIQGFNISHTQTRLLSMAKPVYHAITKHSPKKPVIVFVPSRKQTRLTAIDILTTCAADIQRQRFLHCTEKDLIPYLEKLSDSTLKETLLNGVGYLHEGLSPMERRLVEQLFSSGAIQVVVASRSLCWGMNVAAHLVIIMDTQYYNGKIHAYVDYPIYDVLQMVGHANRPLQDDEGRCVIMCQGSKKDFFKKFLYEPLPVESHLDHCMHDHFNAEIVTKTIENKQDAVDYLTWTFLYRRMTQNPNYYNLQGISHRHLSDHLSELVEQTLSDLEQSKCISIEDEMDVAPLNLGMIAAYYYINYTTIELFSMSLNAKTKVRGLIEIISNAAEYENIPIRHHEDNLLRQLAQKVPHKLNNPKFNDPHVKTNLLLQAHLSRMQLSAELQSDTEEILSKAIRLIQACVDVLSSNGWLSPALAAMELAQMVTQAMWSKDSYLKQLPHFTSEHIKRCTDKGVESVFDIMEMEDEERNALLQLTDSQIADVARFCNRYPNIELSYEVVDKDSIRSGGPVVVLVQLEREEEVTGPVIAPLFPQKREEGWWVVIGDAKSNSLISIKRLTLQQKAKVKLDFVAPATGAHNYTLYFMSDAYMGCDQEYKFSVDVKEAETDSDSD
UniProt Q9Y5X3: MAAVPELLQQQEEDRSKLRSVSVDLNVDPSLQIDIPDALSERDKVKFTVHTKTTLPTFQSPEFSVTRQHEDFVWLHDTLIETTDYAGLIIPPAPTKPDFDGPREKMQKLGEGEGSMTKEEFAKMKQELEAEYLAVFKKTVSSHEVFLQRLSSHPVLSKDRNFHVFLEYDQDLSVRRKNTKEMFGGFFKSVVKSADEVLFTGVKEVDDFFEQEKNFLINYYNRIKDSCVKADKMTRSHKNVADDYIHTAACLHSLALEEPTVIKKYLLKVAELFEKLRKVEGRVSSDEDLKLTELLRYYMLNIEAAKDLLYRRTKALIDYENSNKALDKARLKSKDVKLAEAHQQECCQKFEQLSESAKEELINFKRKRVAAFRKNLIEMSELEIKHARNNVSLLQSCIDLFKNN
UniProt Q6J4K2: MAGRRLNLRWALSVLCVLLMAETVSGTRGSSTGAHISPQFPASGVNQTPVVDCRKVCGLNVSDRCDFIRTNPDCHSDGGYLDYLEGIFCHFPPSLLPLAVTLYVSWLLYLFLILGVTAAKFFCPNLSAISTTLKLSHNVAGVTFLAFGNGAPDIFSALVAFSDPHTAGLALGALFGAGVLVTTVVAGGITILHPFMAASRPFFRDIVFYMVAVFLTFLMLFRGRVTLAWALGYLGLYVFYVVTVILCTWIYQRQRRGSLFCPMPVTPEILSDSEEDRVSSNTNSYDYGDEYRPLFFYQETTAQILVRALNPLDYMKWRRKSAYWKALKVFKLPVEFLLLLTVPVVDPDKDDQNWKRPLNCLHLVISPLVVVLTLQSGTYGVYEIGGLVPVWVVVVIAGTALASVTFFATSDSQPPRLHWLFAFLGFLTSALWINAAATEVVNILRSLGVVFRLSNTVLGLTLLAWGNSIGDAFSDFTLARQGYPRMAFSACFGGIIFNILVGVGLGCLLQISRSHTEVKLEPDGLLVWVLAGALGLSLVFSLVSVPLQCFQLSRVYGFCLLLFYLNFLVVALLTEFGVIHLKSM
UniProt Q86T20: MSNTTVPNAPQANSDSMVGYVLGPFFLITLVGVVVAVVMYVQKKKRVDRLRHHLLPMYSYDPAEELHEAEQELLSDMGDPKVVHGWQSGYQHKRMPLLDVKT
UniProt O95295: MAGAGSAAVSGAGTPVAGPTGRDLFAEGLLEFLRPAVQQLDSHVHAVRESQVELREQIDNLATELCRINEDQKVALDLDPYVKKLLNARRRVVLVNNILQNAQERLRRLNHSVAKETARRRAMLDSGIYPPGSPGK
UniProt Q96E16: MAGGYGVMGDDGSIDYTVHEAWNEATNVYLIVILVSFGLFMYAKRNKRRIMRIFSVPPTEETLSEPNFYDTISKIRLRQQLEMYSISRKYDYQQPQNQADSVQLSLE
UniProt P57768: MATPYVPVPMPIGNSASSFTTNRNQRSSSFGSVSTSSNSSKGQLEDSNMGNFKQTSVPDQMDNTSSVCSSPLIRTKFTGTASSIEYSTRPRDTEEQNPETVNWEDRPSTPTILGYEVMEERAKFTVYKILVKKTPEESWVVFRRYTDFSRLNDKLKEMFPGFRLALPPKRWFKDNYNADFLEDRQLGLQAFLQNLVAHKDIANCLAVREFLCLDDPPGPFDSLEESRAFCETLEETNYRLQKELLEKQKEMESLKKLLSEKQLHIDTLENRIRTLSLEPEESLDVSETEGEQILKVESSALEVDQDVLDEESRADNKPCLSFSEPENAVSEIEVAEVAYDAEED
UniProt P17405: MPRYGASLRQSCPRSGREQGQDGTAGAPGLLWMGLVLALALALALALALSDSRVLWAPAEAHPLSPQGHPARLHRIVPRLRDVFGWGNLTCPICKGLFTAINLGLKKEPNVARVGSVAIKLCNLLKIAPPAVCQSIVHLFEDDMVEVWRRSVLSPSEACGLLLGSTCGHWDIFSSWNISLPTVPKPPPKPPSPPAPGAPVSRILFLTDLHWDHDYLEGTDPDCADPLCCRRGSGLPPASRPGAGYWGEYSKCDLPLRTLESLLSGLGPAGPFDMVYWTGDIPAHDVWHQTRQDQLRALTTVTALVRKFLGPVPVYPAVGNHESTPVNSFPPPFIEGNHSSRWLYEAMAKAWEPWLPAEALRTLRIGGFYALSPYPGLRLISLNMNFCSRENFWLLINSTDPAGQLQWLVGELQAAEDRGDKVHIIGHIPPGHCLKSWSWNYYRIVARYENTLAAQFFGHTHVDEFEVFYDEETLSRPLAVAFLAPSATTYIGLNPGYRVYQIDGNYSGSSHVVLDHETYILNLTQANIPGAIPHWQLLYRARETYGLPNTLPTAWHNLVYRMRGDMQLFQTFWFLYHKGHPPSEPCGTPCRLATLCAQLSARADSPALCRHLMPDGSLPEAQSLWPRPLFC

Tests used:
Test in all cases: log2 fold change, soluble protein after heating vs DMSO (PISA); higher = thermal stabilisation; K562 cells, 10 uM, 30 min; active = over 0.2 and 3.5 SD of the protein, either way, in both replicates (recomputed)
[1] = compound: Cc1sc2c(c1C)C(c1ccc(Cl)cc1)=N[C@@H](CC(=O)OC(C)(C)C)c1nnc(C)n1-2
Summary of the method: (§1)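 K562 cells at 2×10^6 cells/mL were treated for 30 min with 10 μM compound, and aliquots were heated for 3 min over 48°C-58°C before pooling. Extraction used PBS with 0.5% NP-40 at 4°C, and soluble protein was the supernatant after 21,000xg for 90 min, measured by TMTpro 16plex LC-MS/MS with channel sums equalised. Thermal stability values, relative to control samples and from duplicates, are log2 fold changes.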

[2] = compound: C1=CC=C(C=C1)[C@H](COC2=CC3=C(C=C2)NC(=O)N3)NC(=O)C4=CC=CN(C4=O)CC5=CC(=C(C=C5)F)F
Summary of the method: as §1

[3] = compound: CC1=C(SC2=C1C(=N[C@H](C3=NN=C(N32)C)CC(=O)N)C4=CC=C(C=C4)Cl)C
Summary of the method: as §1

[4] = compound: c1ccc([C@@H]2C[C@H]2NC2CCNCC2)cc1
Summary of the method: as §1

[5] = compound: CC1=C2C(=CC=C1)N=C(N(C2=O)C3=CC=CC=C3C)CN4C=NC5=C(N=CN=C54)N
Summary of the method: as §1

Measured: log2 fold change

SMPDL3A (UniProt Q92484)
inactive: [1] 0.048

SP4 (UniProt Q02446)
inactive: [1] -0.015

SMAGP (UniProt Q0VAQ4)
inactive: [2] -0.298 | [3] 0.059 | [1] -0.061 | [4] -0.136

SMARCD2 (UniProt Q92925)
inactive: [3] -0.031 | [1] -0.054 | [4] -0.35

SMG6 (UniProt Q86US8)
inactive: [2] -0.061 | [3] -0.257 | [1] -0.178 | [4] -0.311

SLC9B2 (UniProt Q86UD5)
inactive: [5] -0.144

SMARCAL1 (UniProt Q9NZC9)
inactive: [5] 0.19

SLC9A1 (UniProt P19634)
inactive: [2] -0.03 | [5] 0.037 | [1] -0.091

SNRPC (UniProt P09234)
inactive: [2] 0.046 | [3] -0.01 | [5] -0.182 | [1] 0.032 | [4] 0.059

SMIM26, A0A096LP01
inactive: [2] -0.029 | [3] -0.014 | [5] 0.017 | [1] 0.154 | [4] 0.024

SNRNP200 (UniProt O75643)
inactive: [2] 0.017 | [3] 0.01 | [5] -0.003 | [1] 0.084 | [4] 0.032

SOX6 (UniProt P35712)
inactive: [3] 0.157 | [5] 0.05 | [4] -0.224

SNAP47 (UniProt Q5SQN1)
inactive: [5] 0.415

SNX5 (UniProt Q9Y5X3)
inactive: [2] -0.016 | [3] 0.045 | [5] 0.014 | [1] 0.04 | [4] -0.071

SMTN isoform 6 (UniProt P53814)
inactive: [5] -0.156 | [1] 0.017

SLC8B1 (UniProt Q6J4K2)
inactive: [2] 0.094 | [3] 0.178 | [5] 0.019 | [4] -0.049

SMIM29 (UniProt Q86T20)
inactive: [3] 0.032 | [4] -0.117

SNX14 (UniProt Q9Y5W7)
inactive: [2] 0.057 | [5] 0.013 | [1] 0.1

SNAPIN (UniProt O95295)
inactive: [2] -0.024 | [3] 0.094 | [5] -0.028 | [1] -0.044 | [4] -0.039

SNAP23 isoform 2 (UniProt O00161)
inactive: [5] -0.503 | [1] 0.277

SNX4 (UniProt O95219)
inactive: [3] -0.053 | [4] -0.073

SMARCA4 (UniProt P51532)
inactive: [2] 0.073 | [3] -0.023 | [5] 0.244 | [4] -0.027

Looked up one by one from above (2):
SMTN isoform 6 (UniProt P53814)
inactive: [5] -0.156 | [1] 0.017

SNX4 (UniProt O95219)
inactive: [3] -0.053 | [4] -0.073

Next part:

SMIM19 (UniProt Q96E16)
inactive: [5] 0.174 | [1] -0.6

SMARCB1 (UniProt Q12824)
inactive: [3] 0.057 | [5] -0.041 | [1] 0.015 | [4] 0.18

SNRPB isoform 3 (UniProt P14678)
inactive: [2] 0.027 | [3] -0.073 | [5] -0.061 | [1] 0.08 | [4] 0.033

SMAD3 (UniProt P84022)
inactive: [3] -0.082 | [5] -0.09 | [1] -0.001 | [4] 0.041

SNX16 (UniProt P57768)
inactive: [2] 0.053 | [3] -0.124 | [5] 0.157 | [4] -0.035

SNX27 (UniProt Q96L92)
inactive: [3] -0.144 | [5] -0.003 | [1] 0.118 | [4] 0.001

SNRPB2 (UniProt P08579)
inactive: [2] 0.083 | [3] 0.002 | [5] -0.044 | [1] 0.07 | [4] 0.02

SMPD1 (UniProt P17405)
inactive: [5] 0.181

SON isoform 9 (UniProt P18583)
inactive: [2] -0.166 | [5] -0.012 | [1] 0.019

SOS1 (UniProt Q07889)
inactive: [2] 0.063 | [1] -0.163
